From PMC9098222
Numbering of substitutions follows the chain as printed. These are yes or no findings as the source states them, for the method shown. Binding seen in cells or lysates may run through a third protein. Some results given as binding are weak or reduced against the parent protein; the word gives no strength. For part of these data: Tags and fused reporters may be left off the sequences shown. Each block holds one substance with its values, some of them ahead of it.

The chains behind the UniProt entries cited, without tags or fusion partners.
UniProt P16591: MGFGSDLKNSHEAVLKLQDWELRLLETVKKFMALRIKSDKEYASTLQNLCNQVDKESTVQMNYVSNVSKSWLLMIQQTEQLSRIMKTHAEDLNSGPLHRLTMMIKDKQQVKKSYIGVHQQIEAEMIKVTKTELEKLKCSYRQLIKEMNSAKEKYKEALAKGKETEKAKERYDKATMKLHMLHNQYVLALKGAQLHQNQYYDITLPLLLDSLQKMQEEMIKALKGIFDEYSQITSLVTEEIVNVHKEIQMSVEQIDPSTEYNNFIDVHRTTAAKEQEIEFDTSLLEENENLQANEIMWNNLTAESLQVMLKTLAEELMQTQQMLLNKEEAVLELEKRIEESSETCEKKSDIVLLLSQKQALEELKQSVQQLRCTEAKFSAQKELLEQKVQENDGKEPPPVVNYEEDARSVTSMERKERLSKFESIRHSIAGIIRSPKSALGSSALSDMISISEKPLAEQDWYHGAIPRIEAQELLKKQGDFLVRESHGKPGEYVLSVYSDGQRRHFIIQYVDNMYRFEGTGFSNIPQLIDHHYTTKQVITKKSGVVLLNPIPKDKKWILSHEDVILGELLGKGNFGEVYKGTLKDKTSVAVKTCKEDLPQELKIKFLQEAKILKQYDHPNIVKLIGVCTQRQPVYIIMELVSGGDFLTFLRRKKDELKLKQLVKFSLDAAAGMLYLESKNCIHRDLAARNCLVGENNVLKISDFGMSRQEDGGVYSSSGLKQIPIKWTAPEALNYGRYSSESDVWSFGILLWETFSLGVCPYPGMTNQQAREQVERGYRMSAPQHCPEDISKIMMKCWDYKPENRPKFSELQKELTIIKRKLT
UniProt P35568: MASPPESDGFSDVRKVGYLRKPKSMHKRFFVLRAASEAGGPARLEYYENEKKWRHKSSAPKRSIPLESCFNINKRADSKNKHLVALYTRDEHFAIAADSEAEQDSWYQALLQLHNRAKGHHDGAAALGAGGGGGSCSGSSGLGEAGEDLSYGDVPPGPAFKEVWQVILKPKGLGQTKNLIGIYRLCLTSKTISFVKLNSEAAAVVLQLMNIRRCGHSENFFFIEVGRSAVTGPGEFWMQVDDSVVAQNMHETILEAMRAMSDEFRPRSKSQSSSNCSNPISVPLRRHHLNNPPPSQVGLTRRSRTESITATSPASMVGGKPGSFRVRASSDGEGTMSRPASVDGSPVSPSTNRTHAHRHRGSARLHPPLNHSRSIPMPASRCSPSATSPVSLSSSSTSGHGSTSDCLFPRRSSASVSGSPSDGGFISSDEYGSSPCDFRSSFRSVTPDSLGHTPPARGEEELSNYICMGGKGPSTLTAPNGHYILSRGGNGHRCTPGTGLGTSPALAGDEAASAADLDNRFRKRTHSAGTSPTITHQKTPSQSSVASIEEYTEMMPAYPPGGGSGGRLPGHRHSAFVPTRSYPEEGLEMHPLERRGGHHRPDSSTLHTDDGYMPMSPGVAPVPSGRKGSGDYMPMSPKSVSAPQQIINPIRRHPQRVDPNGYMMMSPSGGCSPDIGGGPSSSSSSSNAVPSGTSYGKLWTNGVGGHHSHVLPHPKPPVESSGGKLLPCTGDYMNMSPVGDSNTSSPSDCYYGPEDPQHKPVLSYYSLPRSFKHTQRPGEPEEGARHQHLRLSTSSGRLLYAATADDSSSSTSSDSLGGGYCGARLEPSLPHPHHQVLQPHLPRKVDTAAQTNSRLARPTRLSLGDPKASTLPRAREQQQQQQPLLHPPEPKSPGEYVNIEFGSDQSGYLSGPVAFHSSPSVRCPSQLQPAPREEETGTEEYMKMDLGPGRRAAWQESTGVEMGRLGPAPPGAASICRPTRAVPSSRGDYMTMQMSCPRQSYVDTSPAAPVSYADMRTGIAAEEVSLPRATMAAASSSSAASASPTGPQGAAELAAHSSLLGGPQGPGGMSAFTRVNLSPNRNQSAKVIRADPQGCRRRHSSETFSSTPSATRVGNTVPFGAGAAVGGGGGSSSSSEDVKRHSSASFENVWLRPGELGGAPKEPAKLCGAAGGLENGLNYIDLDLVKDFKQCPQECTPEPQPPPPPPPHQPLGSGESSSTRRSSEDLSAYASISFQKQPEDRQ
UniProt O00459: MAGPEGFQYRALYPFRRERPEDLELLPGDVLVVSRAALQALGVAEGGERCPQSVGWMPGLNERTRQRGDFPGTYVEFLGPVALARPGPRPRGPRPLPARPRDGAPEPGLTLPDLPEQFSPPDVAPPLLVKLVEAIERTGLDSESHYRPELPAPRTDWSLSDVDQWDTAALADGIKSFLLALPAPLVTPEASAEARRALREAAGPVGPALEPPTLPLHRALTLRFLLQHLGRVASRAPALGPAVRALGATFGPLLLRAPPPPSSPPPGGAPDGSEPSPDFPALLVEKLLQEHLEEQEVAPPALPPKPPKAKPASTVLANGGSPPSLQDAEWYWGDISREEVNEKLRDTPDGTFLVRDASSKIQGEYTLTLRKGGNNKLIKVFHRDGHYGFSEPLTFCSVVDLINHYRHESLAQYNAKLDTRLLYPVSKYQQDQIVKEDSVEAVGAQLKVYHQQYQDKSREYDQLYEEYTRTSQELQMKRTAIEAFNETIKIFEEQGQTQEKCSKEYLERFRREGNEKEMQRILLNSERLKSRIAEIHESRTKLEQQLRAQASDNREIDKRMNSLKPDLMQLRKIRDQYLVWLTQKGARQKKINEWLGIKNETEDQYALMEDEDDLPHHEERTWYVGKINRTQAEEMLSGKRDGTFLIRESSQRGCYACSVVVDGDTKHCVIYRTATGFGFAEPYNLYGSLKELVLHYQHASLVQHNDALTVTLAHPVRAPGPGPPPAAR
UniProt P27986: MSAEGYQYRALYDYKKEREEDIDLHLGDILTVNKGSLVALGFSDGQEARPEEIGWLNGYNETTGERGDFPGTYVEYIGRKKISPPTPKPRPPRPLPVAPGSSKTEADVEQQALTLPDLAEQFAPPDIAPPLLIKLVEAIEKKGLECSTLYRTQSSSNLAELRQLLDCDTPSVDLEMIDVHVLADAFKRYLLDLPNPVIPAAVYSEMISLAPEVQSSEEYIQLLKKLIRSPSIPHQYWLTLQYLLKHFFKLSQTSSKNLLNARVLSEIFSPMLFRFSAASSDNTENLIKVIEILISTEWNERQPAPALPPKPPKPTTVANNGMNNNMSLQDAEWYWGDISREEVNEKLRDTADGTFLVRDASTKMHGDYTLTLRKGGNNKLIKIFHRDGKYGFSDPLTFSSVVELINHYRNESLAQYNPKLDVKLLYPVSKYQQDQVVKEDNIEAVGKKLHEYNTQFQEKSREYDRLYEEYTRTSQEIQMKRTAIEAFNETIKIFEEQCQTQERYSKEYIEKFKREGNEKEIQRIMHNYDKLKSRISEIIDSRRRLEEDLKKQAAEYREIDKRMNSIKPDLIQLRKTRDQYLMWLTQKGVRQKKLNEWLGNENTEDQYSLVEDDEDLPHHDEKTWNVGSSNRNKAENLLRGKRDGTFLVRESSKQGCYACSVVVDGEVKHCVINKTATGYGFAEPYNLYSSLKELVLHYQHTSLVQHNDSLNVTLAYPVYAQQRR

Columns and labels:
[1] = target: T1, Myc-tagged IRS4 (insulin receptor substrate 4), full-length (human) (UniProt O14654); assay: co-IP; HEK293FT cells transiently co-transfected; lysis in 20 mM HEPES pH 7.5, 150 mM NaCl, 1% Nonidet P-40, 1 mM sodium orthovanadate; Myc-tagged IRS4 form precipitated with anti-Myc resin, partners found by immunoblot; some panels with or without co-expressed FLAG-IRS1, FLAG-PIK3R1 or FER
T1 sequence: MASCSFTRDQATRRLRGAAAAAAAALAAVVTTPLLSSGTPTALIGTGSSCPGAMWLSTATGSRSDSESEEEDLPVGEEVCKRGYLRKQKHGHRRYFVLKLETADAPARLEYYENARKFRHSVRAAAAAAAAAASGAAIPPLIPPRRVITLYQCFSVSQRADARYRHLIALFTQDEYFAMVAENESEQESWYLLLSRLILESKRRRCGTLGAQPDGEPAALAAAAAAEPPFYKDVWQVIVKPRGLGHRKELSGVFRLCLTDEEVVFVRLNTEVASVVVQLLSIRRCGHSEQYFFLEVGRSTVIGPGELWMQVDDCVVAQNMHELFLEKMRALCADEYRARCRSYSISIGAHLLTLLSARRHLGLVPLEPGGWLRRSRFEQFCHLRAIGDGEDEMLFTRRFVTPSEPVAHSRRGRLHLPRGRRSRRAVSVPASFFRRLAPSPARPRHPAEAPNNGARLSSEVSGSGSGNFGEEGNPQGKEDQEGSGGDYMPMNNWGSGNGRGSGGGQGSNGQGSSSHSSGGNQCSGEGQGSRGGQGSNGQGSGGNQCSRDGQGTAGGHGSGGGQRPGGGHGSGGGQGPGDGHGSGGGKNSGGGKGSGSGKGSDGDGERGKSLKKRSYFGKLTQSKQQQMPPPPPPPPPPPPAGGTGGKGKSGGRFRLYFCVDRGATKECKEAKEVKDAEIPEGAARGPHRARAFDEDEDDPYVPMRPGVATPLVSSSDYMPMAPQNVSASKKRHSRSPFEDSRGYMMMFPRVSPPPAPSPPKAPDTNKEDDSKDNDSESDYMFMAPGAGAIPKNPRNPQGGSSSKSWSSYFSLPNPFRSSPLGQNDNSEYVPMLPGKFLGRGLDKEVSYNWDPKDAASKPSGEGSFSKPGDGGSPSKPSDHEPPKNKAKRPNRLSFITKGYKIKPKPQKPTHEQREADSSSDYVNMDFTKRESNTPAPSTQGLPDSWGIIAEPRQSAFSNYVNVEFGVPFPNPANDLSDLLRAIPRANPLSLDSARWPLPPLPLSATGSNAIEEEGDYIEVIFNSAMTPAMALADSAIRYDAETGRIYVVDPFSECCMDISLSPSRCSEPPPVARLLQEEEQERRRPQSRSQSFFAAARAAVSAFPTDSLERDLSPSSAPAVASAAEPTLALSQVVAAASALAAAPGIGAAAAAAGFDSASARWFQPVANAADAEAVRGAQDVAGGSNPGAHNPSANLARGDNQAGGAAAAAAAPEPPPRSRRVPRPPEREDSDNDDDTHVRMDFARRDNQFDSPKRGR

[2] = target: T2, Myc-tagged IRS4 1–400 (human) (UniProt O14654); assay: as above
T2 sequence: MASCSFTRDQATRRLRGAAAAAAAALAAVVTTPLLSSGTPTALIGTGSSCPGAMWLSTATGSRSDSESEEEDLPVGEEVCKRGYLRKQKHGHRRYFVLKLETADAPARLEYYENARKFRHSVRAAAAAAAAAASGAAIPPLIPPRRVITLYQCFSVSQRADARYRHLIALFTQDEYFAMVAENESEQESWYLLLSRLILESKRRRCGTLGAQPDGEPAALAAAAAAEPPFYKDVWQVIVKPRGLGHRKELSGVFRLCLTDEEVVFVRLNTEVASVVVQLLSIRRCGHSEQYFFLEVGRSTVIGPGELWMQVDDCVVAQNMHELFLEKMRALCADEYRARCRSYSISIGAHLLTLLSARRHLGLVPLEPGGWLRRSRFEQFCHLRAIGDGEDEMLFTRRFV

[3] = target: T3, IRS4, endogenous in OVCAR-5 cells (human (endogenous in OVCAR-5)) (UniProt O14654); assay: co-IP; endogenous proteins in OVCAR-5 cell lysates; anti-FER or anti-IRS4 antibody against anti-IgG control, protein A/G beads, immunoblot; also in FER-KO and IRS4-KO cells and in cells treated with TAE684 (0.01, 0.1, 1 μM, 24 hr) or BMS-536924
T3 sequence: T1 sequence

[4] = target: T4, Myc-tagged IRS4 Y779F (human) (UniProt O14654); assay: co-IP; HEK293FT cells transiently co-transfected; lysis in 20 mM HEPES pH 7.5, 150 mM NaCl, 1% Nonidet P-40, 1 mM sodium orthovanadate; Myc-tagged IRS4 form precipitated with anti-Myc resin, partners found by immunoblot; some panels with or without co-expressed FLAG-IRS1, FLAG-PIK3R1 or FER
T4 sequence: T1 sequence with Y779F

[5] = target: T5, Myc-tagged IRS4 200–400 (PTB domain only) (human) (UniProt O14654); assay: as above
T5 sequence: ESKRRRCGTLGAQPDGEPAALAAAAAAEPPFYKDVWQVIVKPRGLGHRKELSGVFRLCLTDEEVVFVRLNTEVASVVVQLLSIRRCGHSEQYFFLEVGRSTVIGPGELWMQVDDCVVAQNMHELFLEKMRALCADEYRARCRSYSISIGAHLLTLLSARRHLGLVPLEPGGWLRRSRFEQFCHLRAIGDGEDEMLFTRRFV

[6] = target: T6, Myc-tagged IRS4 1–200 (PH domain only) (human) (UniProt O14654); assay: as above
T6 sequence: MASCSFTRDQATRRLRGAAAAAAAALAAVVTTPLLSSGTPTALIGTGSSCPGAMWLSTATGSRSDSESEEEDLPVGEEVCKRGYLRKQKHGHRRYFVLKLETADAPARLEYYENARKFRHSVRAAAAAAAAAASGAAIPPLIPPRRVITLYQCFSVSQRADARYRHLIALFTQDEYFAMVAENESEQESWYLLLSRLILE

[7] = target: FER, endogenous in OVCAR-5 cells (human (endogenous in OVCAR-5)) (UniProt P16591); assay: co-IP; endogenous proteins in OVCAR-5 cell lysates; anti-FER or anti-IRS4 antibody against anti-IgG control, protein A/G beads, immunoblot; also in FER-KO and IRS4-KO cells and in cells treated with TAE684 (0.01, 0.1, 1 μM, 24 hr) or BMS-536924

- binding [1]: binds
- binding [2]: binds
Substance: FER (wild-type, no tag named) (from UniProt P16591 1-822) (enzyme)

- binding [7]: binds
Substance: IRS1, endogenous in OVCAR-5 cells (from UniProt P35568 1-1242)

- binding [3]: binds
Substance: PIK3R2 (p85β), endogenous in OVCAR-5 cells (from UniProt O00459 1-728)

Second part, the substance before the results:

Substance: FER, endogenous in OVCAR-5 cells (from UniProt P16591 1-822) (enzyme)
- binding [3]: binds

Substance: FLAG-tagged PIK3R1 (p85α) (from UniProt P27986 1-724)
- binding [1]: binds
- binding [4]: binds

Substance: GFP-tagged FER (from UniProt P16591 1-822) (enzyme)
- binding [1]: binds
- binding [5]: binds
- binding [6]: binds
- binding [2]: binds

Substance: PIK3R2 expressed from pCMV3-PIK3R2 (from UniProt O00459 1-728)
- binding [1]: binds
